Source: ChEMBL document CHEMBL3988442, “University of Dundee, Small-Polar-MMV Screening Library” (2021).

Protein sequences, listed by entry. Tags and fused reporters are not part of them.
UniProt I6X8D2, whole entry: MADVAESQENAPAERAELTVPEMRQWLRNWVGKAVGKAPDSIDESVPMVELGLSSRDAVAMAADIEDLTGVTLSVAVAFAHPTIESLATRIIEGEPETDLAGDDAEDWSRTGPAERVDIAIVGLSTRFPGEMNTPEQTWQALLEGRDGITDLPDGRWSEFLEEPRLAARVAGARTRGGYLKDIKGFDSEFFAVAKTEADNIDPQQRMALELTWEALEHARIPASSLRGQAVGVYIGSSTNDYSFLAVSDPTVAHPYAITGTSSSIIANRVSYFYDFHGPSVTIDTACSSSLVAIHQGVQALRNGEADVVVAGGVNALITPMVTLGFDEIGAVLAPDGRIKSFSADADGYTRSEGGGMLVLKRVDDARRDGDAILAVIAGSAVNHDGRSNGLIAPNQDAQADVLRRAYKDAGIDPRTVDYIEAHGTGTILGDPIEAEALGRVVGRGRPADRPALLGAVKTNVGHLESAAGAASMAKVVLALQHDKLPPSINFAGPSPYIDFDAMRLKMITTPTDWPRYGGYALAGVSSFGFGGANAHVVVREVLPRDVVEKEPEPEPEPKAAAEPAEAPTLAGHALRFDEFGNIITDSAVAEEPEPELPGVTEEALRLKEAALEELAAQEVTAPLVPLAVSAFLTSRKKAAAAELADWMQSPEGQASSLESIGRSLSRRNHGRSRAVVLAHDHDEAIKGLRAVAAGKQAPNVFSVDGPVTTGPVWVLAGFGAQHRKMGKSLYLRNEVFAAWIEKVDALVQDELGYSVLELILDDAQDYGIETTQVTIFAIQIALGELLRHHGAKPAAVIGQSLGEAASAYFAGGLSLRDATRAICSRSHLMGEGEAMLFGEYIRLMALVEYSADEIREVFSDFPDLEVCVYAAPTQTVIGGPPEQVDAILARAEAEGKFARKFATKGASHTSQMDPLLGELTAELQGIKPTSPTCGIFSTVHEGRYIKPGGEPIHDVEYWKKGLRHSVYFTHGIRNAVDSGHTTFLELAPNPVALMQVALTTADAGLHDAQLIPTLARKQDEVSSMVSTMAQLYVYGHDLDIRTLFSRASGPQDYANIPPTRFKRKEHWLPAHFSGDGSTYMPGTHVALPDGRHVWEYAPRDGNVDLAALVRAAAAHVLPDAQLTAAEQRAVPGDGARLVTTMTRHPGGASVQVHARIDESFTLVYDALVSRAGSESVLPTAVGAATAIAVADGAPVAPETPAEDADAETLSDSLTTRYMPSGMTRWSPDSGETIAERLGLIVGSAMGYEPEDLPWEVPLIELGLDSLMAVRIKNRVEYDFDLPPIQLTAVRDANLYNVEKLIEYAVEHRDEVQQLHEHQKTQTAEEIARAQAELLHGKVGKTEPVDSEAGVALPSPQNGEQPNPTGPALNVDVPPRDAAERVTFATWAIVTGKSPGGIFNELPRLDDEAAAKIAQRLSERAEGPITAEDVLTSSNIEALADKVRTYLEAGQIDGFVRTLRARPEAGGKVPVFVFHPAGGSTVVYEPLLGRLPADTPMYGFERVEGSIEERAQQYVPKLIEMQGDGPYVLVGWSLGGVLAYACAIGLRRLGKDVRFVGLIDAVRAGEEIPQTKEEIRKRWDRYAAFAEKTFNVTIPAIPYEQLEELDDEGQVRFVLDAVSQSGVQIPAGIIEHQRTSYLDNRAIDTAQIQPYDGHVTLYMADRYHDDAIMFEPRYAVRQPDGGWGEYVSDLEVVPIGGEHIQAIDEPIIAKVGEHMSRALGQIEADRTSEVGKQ

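Polyketide synthase Pks13, Mycobacterium tuberculosis (UniProt I6X8D2). Enzyme assay of the thioesterase domain of polyketide synthase 13; the read-out is not stated. Tested at 30 µM. The record gives no direction; the compounds picked for IC50 retests had high values, so higher reads as stronger inhibition. About 67,000 compounds were tested under these conditions; 0.46% (about 300) showed 50% or more at least once.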

Results are given as percent effect.
The controls that fix the scale are not given in the record; negative values are as filed.
The compounds are a random part of those screened.

CN(C)C(=O)COC[C@@]12CCC[C@@H]1CNC2 read -32.83%.
Cc1cc(CN2CC[C@H]3C[C@H](c4nccs4)O[C@@H]3C2)no1 read -21.3%.
CN1CCc2c(C#N)c(NCc3ccncc3)n3cnnc3c2C1 read 48.21%.
N#Cc1cccc(CN2C(=O)c3ccccc3CS2(=O)=O)c1 read 1.167%.
CCOCCC(=O)NCc1ccnc(NC2CC2)c1 read -33.25%.
Cc1oc(C(=O)O)cc1S(=O)(=O)Nc1cccc(-n2nccc2C)c1 read -7.159%.
c1ccc(-c2cnc(CN3CCCC3Cn3cccn3)o2)cc1 (stereo not given) read -11.71%.
CCc1cc(CNC(=O)Nc2cc(F)cc(N3CCCC3)c2)on1 read 14.32%.
Cc1ccc(C(=O)N2CCC3(CC2)COC(COc2ccccn2)C3)o1 (stereo not given) read -6.472%.
Cc1ccsc1-c1nnc(C2CCN(Cc3ccc(F)cc3)CC2)o1 read -33.44%.
O=C(c1cccc(N2CCCC2=O)c1)N1CCCC(n2cccn2)C1 (stereo not given) read -24.79%.
Cc1cnn(CC(=O)N2CCC3(CCC(=O)N(C4CCCC4)C3)CC2)c1 read -20.87%.
O=C(Nc1ccccc1)C1CCCN(c2cc(-n3cncn3)ncn2)C1 (stereo not given) read -22.59%.
COC(=O)c1cccn1C1CCN(S(=O)(=O)c2ccccc2)CC1 read 6.148%.
COCc1nc(C2CC2)nn1-c1ccccc1Cl read 4.438%.
Cc1nc(CN2CC[C@H]3[C@@H]2CCC(=O)N3c2cnn(C)c2)cs1 read -42.66%.
Cc1noc(-c2ccnc(Oc3ccc(CN4CCCC4)cc3F)c2)n1 read -19.14%.
COc1ccc(C)cc1CN(C)CC(=O)NC1(C)CCS(=O)(=O)C1 (stereo not given) read -12.67%.
CCNCc1ccc(OCc2ccc3c(c2)OCCO3)cc1 read -9.267%.
COCC(=O)N1CCc2ncc(Cn3cncn3)n2CC1 read -2.404%.
CC(C)c1nnc2n1CCN(C(=O)CN1Cc3ccccc3C1=O)C2 read -12.6%.
O[C@@]1(CNCCCOc2cccnc2)CCCN2CCCC[C@@H]21 read -10.73%.
Cc1nc(-c2ccc(Cl)s2)sc1C(=O)O read 11.89%.
Cc1ccc(C(O)CN2CCN(Cc3nccn3C)CC2)cc1C (stereo not given) read -15.93%.
COc1ncc(C(=O)N2CCCC3(C=Cc4ccccc4O3)CC2)cn1 (stereo not given) read -14.88%.
CN(C)C(=O)N1CCC2(CC(=O)N(c3cccc(C#N)c3)C2)C1 (stereo not given) read -9.061%.
CCS(=O)(=O)N1CCC2(CC(=O)N(c3ccc4c(c3)OCO4)C2)C1 (stereo not given) read 7.339%.
CSc1ccc(NC(=O)NCc2nncn2C2CC2)cc1F read -35.77%.
Cc1cc(C)n(C2CN(CC(=O)N3CCOCC3)C2)n1 read -3.902%.
COc1ccc(SC(C)C(=O)N2CCC(C(N)=O)CC2)cc1 (stereo not given) read -28.48%.
CCOCC1CC2(CCN(C(=O)c3cscn3)CC2)CO1 (stereo not given) read -17.08%.
CCc1nc(NC(=O)Cc2csc(-c3nnc[nH]3)n2)sc1C read 0.1033%.
CCS(=O)(=O)NCC1CCN(c2cnccn2)CC1 read -18.72%.
CN(C)S(=O)(=O)NCc1cccnc1Oc1ccc(F)c(F)c1 read -29.41%.
CN(C)CCOCC1CN(CC2CCOCC2)Cc2nnn(C)c21 (stereo not given) read -2.384%.
CCNC(=O)COc1ccc(C(=O)NC(C)CCc2ccco2)cc1 (stereo not given) read -14.47%.
CN(C)S(=O)(=O)N1CCC(Oc2cccnn2)CC1 read 0.5325%.